Measurements reported in PubChem BioAssay AID2685 (National Center for Advancing Translational Sciences (NCATS), 2010).
Some of the results follow. The main result of the screen is listed elsewhere. These columns were measured beside it and carry no call. Compounds called inactive in the main read-out are mostly missing here. The note in brackets gives the kind of curve behind each potency; many fits are weak.

Assay: qHTS Assay for Lipid Storage Modulators in Drosophila S3 Cells;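 on cell number change: cells counted by Cell Tracker Red CMTPX staining in the red channel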
Conditions: BODIPY lipid droplet fluorescence, 18-24 h; for cell number change: measured here: cell count max response, cells fed with added oleic acid; for AC50: measured here: lipid fluorescence (Fed channel) AC50, cells fed with added oleic acid
Outline: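 Drosophila S3 cells loaded with oleic acid (400 uM, as added) and compounds at several concentrations; lipid droplets imaged by 488-nm laser-scanning cytometry, 500–530 nm intensity and object ratio to cell channel. Percent activity normalized to 20 uM Triacsin C.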

Row | Compound | cell number change [%] | AC50
1 | CC(c1ccccc1)N1C(=O)c2ccc(C(=O)Nc3ccccc3C(=O)O)cc2C1=O (centres undefined) | -7.33 | 0.82 µM [rising, full curve, poor fit]
2 | Cc1cccc(S(=O)(=O)Nc2nc3ccccc3nc2Nc2cccc(C(=O)O)c2)c1 | -8.4 | 6.51 µM [rising, single point]
